Source: PubChem BioAssay AID2685 (National Center for Advancing Translational Sciences (NCATS), 2010)
This is one part of the list. Shown are side measurements of this screen, not its main read-out; they come without a call. Compounds called inactive in the main read-out are mostly missing here. Potencies come from curve fits of mixed quality, noted in brackets.

Assay: qHTS Assay for Lipid Storage Modulators in Drosophila S3 Cells;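 as to cell number change: cells counted by Cell Tracker Red CMTPX staining in the red channel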
Conditions: BODIPY lipid droplet fluorescence, 18-24 h; for cell number change: measured here: cell count max response, cells fed with added oleic acid
How it was run: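 Drosophila S3 cells got compounds at several concentrations plus oleic acid (400 uM solution). Laser-scanning cytometry with 488 nm excitation read lipid droplets at 500-530 nm and cells at 575-640 nm. Percent activity was relative to 20 uM Triacsin C.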

[1] = measured here: cell number channel AC50, cells fed with added oleic acid
[2] = measured here: lipid fluorescence (Fed channel) AC50, cells fed with added oleic acid

Q: For CCN(c1ccccc1)S(=O)(=O)c1ccc(OC)c(NC(=O)CNCCc2ccccc2)c1, which cell number change is on record?
A: The cell number change was -39.4%.

Q: And the AC50 [1]?
A: Its AC50 is 14.6 µM [falling, partial curve, poor fit].

Q: What about the AC50 [2] of the same compound?
A: The AC50 was 6.51 µM [falling, single point].

Q: With CN(C)c1cccc(C(=O)N2CCCC(C(=O)c3cc(F)ccc3F)C2)c1 (centres undefined) as the compound, how does the cell number change read?
A: Its cell number change is -2.29%.

Q: And the AC50 [2]?
A: The AC50 was 29.1 µM [falling, single point].

Q: Which cell number change does the source give for COc1ccccc1N1CCN(C(=O)C2CCN(C(=O)c3cccc(Cl)c3)CC2)CC1 here?
A: Its cell number change is 0.901%.

Q: What about the AC50 [2] of the same compound?
A: Its AC50 is 29.1 µM [falling, single point].

Q: Which cell number change does the source give for Nc1nonc1-c1noc(N2CCCCC2)n1 here?
A: The cell number change was 5.37%.

Q: What does the source list for CCC(C(=O)OCc1csc(CC(=O)Nc2ccccc2C)n1)c1ccccc1 (centres undefined)?
A: cell number change: 8.94%; AC50 [2]: 1.46 µM [rising, full curve]

Q: What does the source list for COc1ccc(-c2nnc(SCC(=O)N3CCOCC3)o2)cc1OC?
A: cell number change: 36.3%; AC50 [1]: 20.6 µM [rising, single point]

Q: Which cell number change does the source give for Cc1nc(C)c(-c2csc(Nc3cccnc3)n2)s1 here?
A: Its cell number change is 267%.

Q: And the AC50 [1]?
A: Its AC50 is 1.16 µM [rising, full curve, poor fit].

Q: And the AC50 [2]?
A: Its AC50 is 0.58 µM [rising, partial curve, poor fit].

Q: With CCOC(=O)c1cnn(-c2ccccc2)c1-n1cccc1C(=O)C(=O)N(CC)CC as the compound, how does the cell number change read?
A: The cell number change was 9.8%.

Q: What does the source list for O=C(Cn1cc([N+](=O)[O-])ccc1=O)NCc1ccc(Cl)cc1Cl?
A: cell number change: 1.08%; AC50 [2]: 29.1 µM [rising, single point]

Q: Which cell number change does the source give for CC1=C(C(=O)OCC2CCCO2)C(c2ccc(O)cc2)NC(=O)N1 (centres undefined) here?
A: Its cell number change is 3.04%.

Q: With CC(C)(C)n1nc(-c2ccc(Cl)cc2)c2c(N)ncnc21 as the compound, how does the cell number change read?
A: The cell number change was -51.3%.

Q: And the AC50 [1]?
A: Its AC50 is 23.1 µM [falling, single point].

Q: What about the AC50 [2] of the same compound?
A: The AC50 was 20.6 µM [falling, single point].

Q: With COc1ccc(-c2cc3c(=O)n(CC(=O)N4CCN(C)CC4)ncn3n2)cc1 as the compound, how does the cell number change read?
A: Its cell number change is 30.3%.

Q: And the AC50 [1]?
A: Its AC50 is 8.2 µM [rising, partial curve].

Q: And the AC50 [2]?
A: Its AC50 is 29.1 µM [rising, single point].

Q: Which cell number change does the source give for NC(=O)c1c(NC(=O)C2c3ccccc3Oc3ccccc32)sc2c1CCCCC2 here?
A: The cell number change was 132%.

Q: What about the AC50 [1] of the same compound?
A: Its AC50 is 2.59 µM [rising, full curve].

Q: What about the AC50 [2] of the same compound?
A: Its AC50 is 2.91 µM [rising, full curve].

Q: What does the source list for COc1ccccc1NC(=O)Cc1ccc(-c2ccccc2)cc1?
A: cell number change: 5.22%; AC50 [2]: 0.58 µM [rising, single point]

Q: Which cell number change does the source give for CN(C)c1ccc(N=Nc2ccccc2C(=O)OCC(=O)NC2CCCC2)cc1 here?
A: The cell number change was -26.6%.

Q: What about the AC50 [2] of the same compound?
A: Its AC50 is 23.1 µM [falling, single point].

Q: For CC(C)C(C)(C#N)NC(=O)CN1C(=O)NC2(CCCc3ccccc32)C1=O (centres undefined), which cell number change is on record?
A: The cell number change was 0.587%.

Q: And the AC50 [2]?
A: Its AC50 is 6.51 µM [falling, single point].

Q: Which cell number change does the source give for Cc1cccc(NCc2cc(Cl)cc(Cl)c2O)n1 here?
A: Its cell number change is -61.4%.

Q: What about the AC50 [1] of the same compound?
A: The AC50 was 10.3 µM [falling, partial curve].

Q: And the AC50 [2]?
A: Its AC50 is 11.6 µM [falling, partial curve].

Q: Which results are given for Cc1nc2nc[nH]n2c(=O)c1CC(=O)O?
A: cell number change: -27%; AC50 [1]: 1.3 µM [falling, full curve, poor fit]; AC50 [2]: 0.58 µM [falling, single point]

Q: For C=CC#CC1(O)CC(C)[N+](C)(C)CC1C (centres undefined), which cell number change is on record?
A: Its cell number change is -49.1%.

Q: And the AC50 [1]?
A: The AC50 was 7.31 µM [falling, partial curve].

Q: What about the AC50 [2] of the same compound?
A: Its AC50 is 13 µM [falling, partial curve].

Q: For Cc1cccc(NC2=NCC(=O)N2Cc2ccccc2)c1, which cell number change is on record?
A: The cell number change was 24%.

Q: And the AC50 [2]?
A: The AC50 was 6.51 µM [rising, single point].

Q: Which results are given for COc1ccc(S(=O)(=O)N2CCOCC2)cc1NC(=O)c1cccc(Cl)c1?
A: cell number change: -7.18%; AC50 [2]: 29.1 µM [falling, single point]

Q: For CCOc1cc(CNn2cnnc2)ccc1OCC(=O)NC1CCCCC1, which cell number change is on record?
A: The cell number change was 6.83%.

Q: And the AC50 [2]?
A: Its AC50 is 6.51 µM [rising, single point].

Q: Which cell number change does the source give for CCN(Cc1ccncc1)C(=S)Nc1ccc(Cl)cc1 here?
A: The cell number change was 23.3%.

Q: And the AC50 [2]?
A: Its AC50 is 29.1 µM [falling, single point].

Q: What does the source list for O=C(COC(=O)c1ccc(CN2CCCC2=O)cc1)Nc1ccc(F)cc1?
A: cell number change: -4.28%; AC50 [2]: 5.8 µM [falling, single point]

Q: Which cell number change does the source give for CCCCSc1nc(C)cc(NC(=S)Nc2ccc(OC)cc2)n1 here?
A: The cell number change was -40.2%.

Q: What about the AC50 [1] of the same compound?
A: Its AC50 is 2.59 µM [falling, partial curve].

Q: What about the AC50 [2] of the same compound?
A: The AC50 was 2.59 µM [falling, partial curve].

Q: Which results are given for COc1ccc(-c2noc(N3CCC(C(=O)Nc4ccc(F)cc4F)CC3)n2)cc1?
A: cell number change: 13%; AC50 [2]: 3.66 µM [rising, single point]

Q: With COc1ccc(C(=O)N2N=C(c3ccccc3)CC2(O)C(F)(F)F)cc1 (centres undefined) as the compound, how does the cell number change read?
A: Its cell number change is 5.39%.

Q: What about the AC50 [1] of the same compound?
A: The AC50 was 6.51 µM [rising, single point].

Q: For O=C(CN1CCN(Cc2ccccc2)CC1)c1ccccc1, which cell number change is on record?
A: Its cell number change is 18.1%.

Q: What about the AC50 [2] of the same compound?
A: The AC50 was 16.4 µM [rising, partial curve].

Q: Which cell number change does the source give for Cc1cccc(C)c1OCC(=O)NCC1COc2ccccc2O1 (centres undefined) here?
A: Its cell number change is 24.7%.

Q: And the AC50 [2]?
A: The AC50 was 0.651 µM [rising, full curve, poor fit].

Q: Which cell number change does the source give for COc1cccc(CNC(=O)CSCc2cnn(-c3ccccc3)c2-n2cccc2)c1OC here?
A: The cell number change was -0.237%.

Q: What about the AC50 [2] of the same compound?
A: Its AC50 is 1.3 µM [falling, partial curve].

Q: With COc1ccc(NS(=O)(=O)c2ccc(C)c(C(=O)N3CCC3)c2)cc1 as the compound, how does the cell number change read?
A: The cell number change was 24.5%.

Q: With Cc1ccc(S(=O)(=O)N2CCOCC2)cc1C(=O)OCC(=O)NC1CCCC(C)C1C (centres undefined) as the compound, how does the cell number change read?
A: Its cell number change is -19.6%.

Q: What about the AC50 [2] of the same compound?
A: Its AC50 is 0.00517 µM [falling, full curve, poor fit].

Q: Which cell number change does the source give for CCCc1nc2ccccc2c(C(=O)OCC(=O)NCc2ccco2)c1CC here?
A: The cell number change was -8.92%.

Q: What about the AC50 [2] of the same compound?
A: Its AC50 is 5.8 µM [rising, single point].

Q: Which cell number change does the source give for COc1ccc(C(=O)NC(=S)NC(C)C)cc1Br here?
A: Its cell number change is 17%.

Q: And the AC50 [2]?
A: Its AC50 is 29.1 µM [rising, single point].

Q: Which cell number change does the source give for N#Cc1nc(COc2ccc(-c3ccccc3)cc2)oc1NCCCN1CCOCC1 here?
A: The cell number change was -23.7%.

Q: And the AC50 [2]?
A: The AC50 was 3.26 µM [rising, single point].

Q: For CCc1ccc(NC(=O)CNC(=O)Cn2ccc3ccccc3c2=O)cc1, which cell number change is on record?
A: Its cell number change is 15.4%.

Q: And the AC50 [2]?
A: Its AC50 is 29.1 µM [rising, partial curve, poor fit].

Q: Which results are given for COc1cccc(Nc2nc(NCCO)c3ccccc3n2)c1?
A: cell number change: 10.4%; AC50 [1]: 1.46 µM [rising, full curve, poor fit]
